About 7,700 (2.3%) of roughly 330,000 compounds were called active. Inconclusive results, whose numbers are uncertain, are shown with a selection of clear calls. The call rests on the fitted dose curve; in most records, active means well fitted inhibition curve with a large enough effect; inconclusive means small, poorly fitted or top-dose-only effect, or effect the other way; inactive means flat fitted curve, though single readings scatter. Where the call is inconclusive, the potency comes from a doubtful curve fit.
Assay: qHTS screen for small molecules that inhibit ELG1-dependent DNA repair in human embryonic kidney (HEK293T) cells expressing luciferase-tagged ELG1; further: nearly all actives have a fitted effect of over 55% in size
Details: HEK293T ELG1-luciferase reporter, luminescence, 16 h, DNA damage induced by 5-fluorouridine; activity change, negative = inhibition: at 46.1 µM (top of the series)
How it was run: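 Quantitative HTS, concentration-response format. 2,000 cells/well co-treated with 5-fluorouridine and compound, 16 hr in 5% CO2 at 37 °C; ONE-Glo luminescence read after 30 min.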
On the % scale 0 is the no-effect control and ±100 the full control effect; potency means the concentration at half of the fitted maximal effect.

**Q.** For `Cc1c(C(=O)Nc2nnc(C3CC3)s2)oc2ccccc12`, which Potency is on record?
**A.** inconclusive: 9.2 µM [activator, partial curve]

**Q.** For `COc1ccccc1C(=O)NC1CC(C)(C)NC(C)(C)C1`, which “activity change, negative = inhibition” value is on record?
**A.** inactive: 1.41%

**Q.** Which Potency does the source give for `Cc1cccc(C=Nc2ccccc2C(N)=O)c1` here?
**A.** inconclusive: 5.17 µM [inhibitor, single point]

**Q.** Which Potency does the source give for `Cc1c(C(=O)N2c3ccccc3Sc3ccccc32)cccc1[N+](=O)[O-]` here?
**A.** inconclusive: 23.1 µM [inhibitor, single point]

**Q.** For `Cc1c(Cl)c([N+](=O)[O-])nn1Cc1ccc(C(=O)N/N=C\c2cccc(Br)c2)o1`, which Potency is on record?
**A.** inconclusive: 35.5 µM [inhibitor, single point]

**Q.** For `O=C1c2ccccc2C(O)N1c1ccc(Cl)cc1` (configuration not stated), which Potency is on record?
**A.** inconclusive: 20.6 µM [activator, partial curve]

**Q.** With `CCOC(=O)c1c(NC(C)=O)sc2c1CCC(C=O)=C2Sc1ccccc1` as the compound, how does the Potency read?
**A.** inconclusive: 23.1 µM [inhibitor, partial curve]

**Q.** For `CCNc1oc(-c2ccc(OC)cc2)nc1S(=O)(=O)c1ccc(Br)cc1`, which Potency is on record?
**A.** inconclusive: 0.0065 µM [inhibitor, full curve, poor fit]

**Q.** For `COc1cccc(Oc2nc(-c3ccccc3O)nc3ccccc23)c1`, which Potency is on record?
**A.** inconclusive: 0.103 µM [inhibitor, single point]

**Q.** For `FC(F)(F)c1nc(NCc2cccnc2)c2ccccc2n1`, which “activity change, negative = inhibition” value is on record?
**A.** inactive: -23.4%

**Q.** Which Potency does the source give for `COc1nnc(-c2ccc(N3CCOCC3)c(NC(=O)c3ccc(C)cc3)c2)c2ccccc12` here?
**A.** inconclusive: 29.1 µM [inhibitor, single point]

**Q.** With `CCCCOc1ccc(C(=O)CCN2CCOCC2)cc1` as the compound, how does the Potency read?
**A.** inconclusive: 16.4 µM [activator, single point]

**Q.** With `Fc1cccc(NC(=S)N2CCc3ccccc32)c1` as the compound, how does the “activity change, negative = inhibition” value read?
**A.** inactive: 15%

**Q.** With `COc1ccc(-c2csc(NC(=O)c3cc(=O)c4ccccc4o3)n2)cc1OC` as the compound, how does the Potency read?
**A.** inconclusive: 6.51 µM [inhibitor, single point]

**Q.** Which Potency does the source give for `COC(=O)c1ccc2ncccc2c1` here?
**A.** inconclusive: 29.1 µM [activator, single point]

**Q.** For `CC1(c2ccccc2)NC(=O)N(CC(=O)N2CCN(S(=O)(=O)c3cccc([N+](=O)[O-])c3)CC2)C1=O` (configuration not stated), which “activity change, negative = inhibition” value is on record?
**A.** inactive: 6.53%

**Q.** Which Potency does the source give for `O=C(NCCCO)c1cc2c([nH]c3ccccc32)c(-c2ccc(F)cc2)n1` here?
**A.** active: 18.3 µM

**Q.** Which Potency does the source give for `C=CCN(CC=C)S(=O)(=O)c1ccc(NC(=O)COc2ccccc2OC)cc1` here?
**A.** inconclusive: 20.6 µM [inhibitor, single point]

**Q.** Which “activity change, negative = inhibition” value does the source give for `CCC1=NN(C(=O)Cc2ccc([N+](=O)[O-])cc2)C(O)(C(F)(F)F)C1` (configuration not stated) here?
**A.** inactive: 1.75%

**Q.** Which Potency does the source give for `COc1ccc(NC(=O)c2cc(F)cc(F)c2)cc1S(=O)(=O)N1CCCCC1` here?
**A.** inconclusive: 18.3 µM [inhibitor, single point]

**Q.** For `Cc1nc2ccc(NC(=O)c3cccs3)cc2s1`, which Potency is on record?
**A.** inconclusive: 18.3 µM [activator, partial curve]

**Q.** Which Potency does the source give for `O=C(O)CN1C(=O)/C(=C\c2cccc(OCc3ccc(Cl)cc3)c2)SC1=S` here?
**A.** inconclusive: 25.9 µM [activator, single point]

**Q.** For `CC(Cc1cccs1)NC(=O)NC1CCCCC1` (configuration not stated), which Potency is on record?
**A.** inconclusive: 14.6 µM [activator, partial curve]

**Q.** For `O=C1C2C(C(=O)N1/N=C/c1cc(Br)cc([N+](=O)[O-])c1O)C1C=CC2C12CC2` (configuration not stated), which “activity change, negative = inhibition” value is on record?
**A.** inactive: -6.16%

**Q.** Which Potency does the source give for `NNc1nnc(-c2ccccc2)c(-c2ccccc2)n1` here?
**A.** inconclusive: 13 µM [inhibitor, partial curve, poor fit]

**Q.** For `Cc1ccc(NC(=S)NC(C)(C)C)c([N+](=O)[O-])c1`, which Potency is on record?
**A.** inconclusive: 0.73 µM [activator, partial curve, poor fit]

**Q.** With `CC1CCN(CCCn2c(=S)[nH]c3c(sc4ccccc43)c2=O)CC1` as the compound, how does the Potency read?
**A.** inconclusive: 29.1 µM [activator, single point]

**Q.** For `CCCCC(=O)/C=C/n1c(=S)oc2ccccc21`, which Potency is on record?
**A.** inconclusive: 29.1 µM [inhibitor, single point]

**Q.** For `O=S(=O)(c1c(F)cccc1F)C1CCN(S(=O)(=O)c2ccc3c(c2)OCCO3)CC1`, which “activity change, negative = inhibition” value is on record?
**A.** inactive: -16.9%

**Q.** With `COCC(=O)Nc1nc(-c2ccc([N+](=O)[O-])cc2)cs1` as the compound, how does the “activity change, negative = inhibition” value read?
**A.** inactive: 3.31%

**Q.** With `CCOC(=O)CCc1c(C)c2ccc(OC3CCCCC3=O)c(C)c2oc1=O` (configuration not stated) as the compound, how does the Potency read?
**A.** inconclusive: 3.66 µM [activator, single point]

**Q.** With `CSc1ncccc1C(=O)NCc1ccc(C)cc1` as the compound, how does the “activity change, negative = inhibition” value read?
**A.** inactive: 17%

**Q.** For `COc1ccc(NC(=O)C2CCN(c3nc(-c4ccc(OC)cc4)no3)CC2)cc1`, which “activity change, negative = inhibition” value is on record?
**A.** inactive: 3.41%

**Q.** With `CCn1c(SCC(=O)Nc2nccs2)nnc1-c1ccc(S(=O)(=O)N2CCCCC2)cc1` as the compound, how does the Potency read?
**A.** active: 20.6 µM

**Q.** Which Potency does the source give for `Cc1ccccc1C(=O)N1CCC(C(=O)N2CCN(Cc3ccc4c(c3)OCO4)CC2)CC1` here?
**A.** inconclusive: 16.4 µM [inhibitor, partial curve]

**Q.** Which “activity change, negative = inhibition” value does the source give for `COc1cccc(NC(=O)CSC2=NN3CCCC(=O)N=C3S2)c1` here?
**A.** inactive: -3.55%

**Q.** Which Potency does the source give for `C=CCNC(=S)NNc1ncnc2sc3c(c12)CC(C)(C)OC3` here?
**A.** inconclusive: 23.1 µM [inhibitor, partial curve]

**Q.** For `COc1ccc(NC(=O)C2CCCCC2)cc1S(=O)(=O)N1CCOCC1`, which “activity change, negative = inhibition” value is on record?
**A.** inactive: -10.3%

**Q.** With `O=C(NC(=S)N1CCN(Cc2ccccc2)CC1)c1cccnc1` as the compound, how does the “activity change, negative = inhibition” value read?
**A.** inactive: 2.5%

**Q.** With `COc1ccccc1/C=N/NC(=O)c1csc(C)c1C` as the compound, how does the Potency read?
**A.** inconclusive: 18.4 µM [activator, single point]

**Q.** With `Cc1c(NC(=S)NC(=O)c2cc3ccccc3o2)cccc1C(=O)O` as the compound, how does the Potency read?
**A.** inconclusive: 2.91 µM [activator, single point]

**Q.** With `COc1ccccc1N1CCN(C(=O)c2cccc(S(=O)(=O)NCc3cccnc3)c2)CC1` as the compound, how does the Potency read?
**A.** inconclusive: 29.1 µM [inhibitor, single point]

**Q.** For `COC(=O)c1cc(NC(=O)c2ccc(Cn3cc(Cl)cn3)o2)cc(C(=O)OC)c1`, which Potency is on record?
**A.** inconclusive: 16.4 µM [inhibitor, partial curve]

**Q.** Which “activity change, negative = inhibition” value does the source give for `CCc1nnc(NC(=O)[C@@H](NC(=O)c2cccc(S(=O)(=O)N(CC)CC)c2)C(C)C)s1` here?
**A.** inactive: -36.5%

**Q.** Which Potency does the source give for `CCOCC(=O)Nc1ccc(OCc2ccccc2)cc1` here?
**A.** inconclusive: 29.1 µM [activator, single point]

**Q.** Which “activity change, negative = inhibition” value does the source give for `Cn1ccnc1SCCNC(=O)CCc1nnc(CCc2ccccc2)o1` here?
**A.** inactive: 0%

**Q.** Which “activity change, negative = inhibition” value does the source give for `COc1ccc(N2CCN(C(=O)c3ccc4c(c3)[nH]c(=S)n3c5ccccc5nc43)CC2)cc1` here?
**A.** inactive: -16.3%

**Q.** Which Potency does the source give for `CCN1CCN(C(=O)c2cc3cc4ccc(OC)cc4nc3s2)CC1` here?
**A.** inconclusive: 16.4 µM [activator, partial curve]

**Q.** Which Potency does the source give for `COc1cccc(/C=N/NC(=O)NC2CCCCC2)c1O` here?
**A.** inconclusive: 9.2 µM [activator, partial curve]

**Q.** With `COc1ccc(CCC(=O)N2CCN(c3ccc(OC)cc3)CC2)cc1` as the compound, how does the “activity change, negative = inhibition” value read?
**A.** inactive: -0.859%

**Q.** With `NC(=O)c1c(NC(=O)c2ccccc2)sc2c1CCC2` as the compound, how does the Potency read?
**A.** inconclusive: 3.66 µM [activator, full curve]

**Q.** With `O=C(NCc1cccs1)C1CCCN(C(=O)Nc2ccccc2)C1` (configuration not stated) as the compound, how does the Potency read?
**A.** inconclusive: 3.26 µM [inhibitor, full curve]

**Q.** For `CN(C(=O)COC(=O)c1cc(=O)[nH]c2ccccc12)c1ccccc1`, which “activity change, negative = inhibition” value is on record?
**A.** inactive: 25.5%

**Q.** With `CCc1noc(C)c1C(=O)N(CC(C)C)c1c(N)n(Cc2ccccc2)c(=O)[nH]c1=O` as the compound, how does the Potency read?
**A.** inconclusive: 20.6 µM [activator, single point]

**Q.** Which “activity change, negative = inhibition” value does the source give for `O=C1CCNCCN1[C@H](CO)c1ccccc1` here?
**A.** inactive: 8.49%

**Q.** For `CSCCNC(=O)c1ccc(C(C)(C)C)cc1`, which Potency is on record?
**A.** inconclusive: 7.31 µM [activator, partial curve]

**Q.** For `CCCOC(=O)CCCCC1SCC(NC(=O)OC)C1NC(=O)OC` (configuration not stated), which Potency is on record?
**A.** inconclusive: 23.1 µM [inhibitor, partial curve, poor fit]

**Q.** With `CC(C)(C)Cc1nnc(NC(=O)c2ccc3c(c2)OCO3)s1` as the compound, how does the Potency read?
**A.** inconclusive: 4.11 µM [activator, full curve]

**Q.** For `Cc1ccc(/C([O-])=C(/C(=S)NCc2ccco2)[n+]2ccccc2)cc1`, which “activity change, negative = inhibition” value is on record?
**A.** inactive: -12.3%

**Q.** For `Clc1cccc(Nc2nc(N3CCOCC3)nc(N3CCOCC3)n2)c1`, which Potency is on record?
**A.** inconclusive: 29.1 µM [inhibitor, partial curve, poor fit]

**Q.** Which Potency does the source give for `O=C(Nc1ccc(Cl)cn1)c1ccc2ccccc2n1` here?
**A.** inconclusive: 1.84 µM [activator, full curve, poor fit]

**Q.** Which “activity change, negative = inhibition” value does the source give for `COC(=O)C(Cc1ccccc1)NC(=O)c1cc(=O)[nH]c2ccccc12` (configuration not stated) here?
**A.** inactive: 14.6%

**Q.** With `O=C(Cc1ccccc1)NCc1ccncc1` as the compound, how does the Potency read?
**A.** inconclusive: 18.3 µM [activator, partial curve]

**Q.** With `O=C(COc1ccc(F)cc1Cl)Nc1ccc(S(=O)(=O)Nc2nccs2)cc1` as the compound, how does the Potency read?
**A.** inconclusive: 29.1 µM [activator, single point]

**Q.** Which “activity change, negative = inhibition” value does the source give for `CCN1CCCC1CNC(=O)C(=O)Nc1ccccc1OC` (configuration not stated) here?
**A.** inactive: 6.84%

**Q.** Which Potency does the source give for `COCCN1Cc2c(sc(C)c2C)N(C(=O)c2ccccc2)C1` here?
**A.** inconclusive: 8.2 µM [activator, single point]

**Q.** With `Oc1ccc(Br)cc1CNc1ccccn1` as the compound, how does the Potency read?
**A.** inconclusive: 23.1 µM [activator, single point]

**Q.** For `COc1ccc(-c2cc(C(=O)Nc3cccc(Cl)c3)no2)cc1`, which Potency is on record?
**A.** inconclusive: 3.66 µM [activator, full curve]

**Q.** For `COCCNC(=S)N/N=C(\C)c1ccc(C)c([N+](=O)[O-])c1`, which “activity change, negative = inhibition” value is on record?
**A.** inactive: -12%

**Q.** For `COc1ccc(C(=O)CSc2nnc(CNC(=O)c3ccc(S(=O)(=O)N(C)C)cc3)o2)cc1`, which “activity change, negative = inhibition” value is on record?
**A.** inactive: -24.8%

**Q.** With `CCC(=O)N1CCc2cc(Br)cc(S(=O)(=O)NCC3CCCO3)c21` (configuration not stated) as the compound, how does the Potency read?
**A.** inconclusive: 3.66 µM [activator, partial curve, poor fit]

**Q.** With `COc1ccc(OC)c(-n2c(SCC(=O)Nc3cccc(S(N)(=O)=O)c3)nc3ccccc3c2=O)c1` as the compound, how does the Potency read?
**A.** inconclusive: 20.6 µM [inhibitor, single point]

— PubChem BioAssay AID504467 (National Center for Advancing Translational Sciences (NCATS), 2011)
